Assay results published in paper PMC7252619 (PLoS ONE, 2020).

Columns and labels:
[1] = system: human PBMCs (responder cells) with RPMI1788 stimulator cells; experiment: Mixed Lymphocyte Reaction (MLR, T cell assay), 3H-thymidine incorporation; type: cell-based; details: for T/B-cell SI: ratio IC50 MLR assay/IC50 B-cell assay
Jurkat cells = experiment: WST-1 cytotoxicity assay on Jurkat cells (T-cell line); type: cell-based, human; details: for T-cell TI: ratio IC50 WST-1 assay Jurkat/IC50 B-cell assay; for Therapeutic Index (TI) WST-1 Jurkat/ B-cell: ratio of IC50 values
RPMI1788 cells = experiment: WST-1 cytotoxicity assay on RPMI1788 cells (B-cell line); type: cell-based, human; details: for B-cell TI: ratio IC50 WST-1 assay RPMI1788/IC50 B-cell assay; for Therapeutic Index (TI) WST-1 RPMI 1788/B-cell: ratio of IC50 values

Cc1cc(C#N)cc(C)c1Oc1nc(Nc2ccc(C#N)cc2)nc(N)c1Br [Etravirine]
T/B-cell SI [1]: 1,23
T-cell TI (Jurkat cells): 5,15
Therapeutic Index (TI) WST-1 Jurkat/ B-cell (Jurkat cells): 5.15
B-cell TI (RPMI1788 cells): 1,35
Therapeutic Index (TI) WST-1 RPMI 1788/B-cell (RPMI1788 cells): 1.35

Oc1cc(Cl)ccc1Oc1ccc(Cl)cc1Cl [Triclosan, reference compound]
T/B-cell SI [1]: 1.64
T-cell TI (Jurkat cells): 1,25
Therapeutic Index (TI) WST-1 Jurkat/ B-cell (Jurkat cells): 1.25
B-cell TI (RPMI1788 cells): 1.32
Therapeutic Index (TI) WST-1 RPMI 1788/B-cell (RPMI1788 cells): 1.32

CN1CCN(CCCN2c3ccccc3Sc3ccc(Cl)cc32)CC1 [Prochlorperazine, reference compound]
B-cell TI (RPMI1788 cells): 1,67

Cc1ccc(C(=O)Nc2ccc(S(=O)(=O)O)c3cc(S(=O)(=O)O)cc(S(=O)(=O)O)c23)cc1NC(=O)c1cccc(NC(=O)Nc2cccc(C(=O)Nc3cc(C(=O)Nc4ccc(S(=O)(=O)O)c5cc(S(=O)(=O)O)cc(S(=O)(=O)O)c45)ccc3C)c2)c1 [Suramin]
T/B-cell SI [1]: 0,84
T-cell TI (Jurkat cells): >1,42
Therapeutic Index (TI) WST-1 Jurkat/ B-cell (Jurkat cells): >1.42
B-cell TI (RPMI1788 cells): >1,42
Therapeutic Index (TI) WST-1 RPMI 1788/B-cell (RPMI1788 cells): >1.42

CCN(CC)Cc1cc(Nc2ccnc3cc(Cl)ccc23)ccc1O [Amodiaquine]
T/B-cell SI [1]: 14,73
T-cell TI (Jurkat cells): 39,43
Therapeutic Index (TI) WST-1 Jurkat/ B-cell (Jurkat cells): 39.43
B-cell TI (RPMI1788 cells): 42,33
Therapeutic Index (TI) WST-1 RPMI 1788/B-cell (RPMI1788 cells): 42.33

C=CC(=O)N1CCC[C@@H](n2nc(-c3ccc(Oc4ccccc4)cc3)c3c(N)ncnc32)C1 [Ibrutinib, reference compound]
T-cell TI (Jurkat cells): 81090
B-cell TI (RPMI1788 cells): 3856

N[C@@H](Cc1cc(I)c(Oc2cc(I)c(O)c(I)c2)c(I)c1)C(=O)O [Thyroxine, reference compound]
T/B-cell SI [1]: >1,47
Therapeutic Index (TI) WST-1 Jurkat/ B-cell (Jurkat cells): >1.47
Therapeutic Index (TI) WST-1 RPMI 1788/B-cell (RPMI1788 cells): >1.47

N[C@@H](Cc1cc(I)c(Oc2ccc(O)c(I)c2)c(I)c1)C(=O)O [Triiodothyronine]
T-cell TI (Jurkat cells): >1,36
B-cell TI (RPMI1788 cells): >1,36

NC(=O)c1cccnc1 [Niacinamide, reference compound]
T/B-cell SI [1]: 1,00
T-cell TI (Jurkat cells): 1,00
Therapeutic Index (TI) WST-1 Jurkat/ B-cell (Jurkat cells): 1
B-cell TI (RPMI1788 cells): 1,00
Therapeutic Index (TI) WST-1 RPMI 1788/B-cell (RPMI1788 cells): 1

COc1c(C)c2c(c(O)c1C/C=C(\C)CCC(=O)OCCN1CCOCC1)C(=O)OC2 [Mycophenolate Mofetyl]
Selectivity Index (SI) MLR/B-cell ([1]; ratio of IC50 values): 0.17
Therapeutic Index (TI) WST-1 Jurkat/ B-cell (Jurkat cells): 0.76
Therapeutic Index (TI) WST-1 RPMI 1788/B-cell (RPMI1788 cells): 0.67

C[C@]12CC[C@@H]3c4ccc(O)cc4CC[C@H]3[C@@H]1CC[C@@H]2O [Estradiol, reference compound]
T/B-cell SI [1]: 0,62
T-cell TI (Jurkat cells): 0,58
Therapeutic Index (TI) WST-1 Jurkat/ B-cell (Jurkat cells): 0.58
B-cell TI (RPMI1788 cells): 1,06
Therapeutic Index (TI) WST-1 RPMI 1788/B-cell (RPMI1788 cells): 1.06

C[C@@H]1CCN(C(=O)CC#N)C[C@@H]1N(C)c1ncnc2[nH]ccc12 [Tofacitinib]
T-cell TI (Jurkat cells): >115,6

Oc1c(Cl)cc(Cl)c(Cl)c1Cc1c(O)c(Cl)cc(Cl)c1Cl [Hexachlorophene, reference compound]
T-cell TI (Jurkat cells): 1,10
B-cell TI (RPMI1788 cells): 0,79

CC/C(=C(/CC)c1ccc(O)cc1)c1ccc(O)cc1 [Diethylstilbestrol, reference compound]
T-cell TI (Jurkat cells): 0,22
B-cell TI (RPMI1788 cells): 1,01

Cc1nc(Nc2ncc(C(=O)Nc3c(C)cccc3Cl)s2)cc(N2CCN(CCO)CC2)n1 [Dasatinib, reference compound]
T-cell TI (Jurkat cells): 160,0

Nc1ncnc2c1ncn2[C@@H]1O[C@H](CO)[C@@H](O)[C@H]1O [Adenosine, reference compound]
T/B-cell SI [1]: 1,00
T-cell TI (Jurkat cells): 1,00
Therapeutic Index (TI) WST-1 Jurkat/ B-cell (Jurkat cells): 1
B-cell TI (RPMI1788 cells): 1,00
Therapeutic Index (TI) WST-1 RPMI 1788/B-cell (RPMI1788 cells): 1

Nc1ccc2cc3ccc(N)cc3nc2c1 [Proflavine]
T/B-cell SI [1]: 7,50
T-cell TI (Jurkat cells): 8,55
Therapeutic Index (TI) WST-1 Jurkat/ B-cell (Jurkat cells): 8.55
B-cell TI (RPMI1788 cells): 5,14
Therapeutic Index (TI) WST-1 RPMI 1788/B-cell (RPMI1788 cells): 5.14
